In PMC10465699, “Interaction patterns of methoprene-tolerant and germ cell-expressed Drosophila JH receptors suggest significant differences in their functioning” (Frontiers in Molecular Biosciences, 2023):
These are yes or no findings as the source states them, for the method shown. In cells and extracts the contact can be indirect. A result given as binding can be weak or reduced; the word gives no strength. Where a sequence is shown, tags or fusion partners need not be part of it.

Biological target: YFP-Gce-FLAG (full-length Gce, short isoform of 689 aa) (D. melanogaster)
Assay: co-IP; COS-7 cells co-transfected with a YFP-/FLAG-tagged protein and CFP-Ftz-F1 LBD; lysate on ANTI-FLAG M2 Affinity Gel, elution with FLAG peptide, Western blot with anti-GFP; no JH

- binding: binds
B1: Fushi tarazu factor-1 ligand-binding domain (Ftz-F1 LBD, 786-1027 aa) (domain or fragment, D. melanogaster, UniProt P33244 786-1027, looked up)
chain: ALIEPLRVSPMIREFVQSIDDREWQTQLFALLQKQTYNQVEVDLFELMCKVLDQNLFSQVDWARNTVFFKDLKVDDQMKLLQHSWSDMLVLDHLHHRIHNGLPDETQLNNGQVFNLMSLGLLGVPQLGDYFNELQNKLQDLKFDMGDYVCMKFLILLNPSVRGIVNRKTVSEGHDNVQAALLDYTLTCYPSVNDKFRGLVNILPEIHAMAVRGEDHLYTKHCAGSAPTQTLLMEMLHAKRKG
notes: 15N- or 13C,15N-labelled where it was the observed protein in NMR, unlabelled otherwise; also called LBD Ftz-F1; source: E. coli BL21(DE3), purified (Ni-NTA, thrombin digestion, SEC); not shown: His6, N-terminal, cleaved
